# Measurements reported in PubChem BioAssay AID2551 (National Center for Advancing Translational Sciences (NCATS), 2010).
# Chains of the proteins cited; added tags and fusions are not shown. Lines headed by an entry give the natural chain unless they say otherwise; changes in a name come on top.
# UniProt P51450: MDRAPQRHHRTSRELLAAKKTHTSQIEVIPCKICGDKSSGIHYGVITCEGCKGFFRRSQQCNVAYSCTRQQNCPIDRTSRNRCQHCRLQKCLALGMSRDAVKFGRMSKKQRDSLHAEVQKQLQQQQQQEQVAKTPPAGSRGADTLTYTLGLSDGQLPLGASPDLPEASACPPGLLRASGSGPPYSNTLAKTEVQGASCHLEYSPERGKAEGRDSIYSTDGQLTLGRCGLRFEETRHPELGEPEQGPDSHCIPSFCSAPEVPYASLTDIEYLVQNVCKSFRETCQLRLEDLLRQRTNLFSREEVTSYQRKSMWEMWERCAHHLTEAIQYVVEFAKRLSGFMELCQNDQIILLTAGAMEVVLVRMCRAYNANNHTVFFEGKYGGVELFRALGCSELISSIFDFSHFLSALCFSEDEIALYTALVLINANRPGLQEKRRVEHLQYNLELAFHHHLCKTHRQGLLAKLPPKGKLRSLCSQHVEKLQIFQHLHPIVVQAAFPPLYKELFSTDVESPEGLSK
# In all, about 310,000 compounds went through this assay and about 17,000 (5.5%) were called active. Inconclusive results, whose numbers are uncertain, are shown with a selection of clear calls. The call rests on the fitted dose curve; in most records, active means well fitted inhibition curve with a large enough effect; inconclusive means small, poorly fitted or top-dose-only effect, or effect the other way; inactive means no such curve, though single readings can be large or run the other way. A potency beside an inconclusive call is a rough fit, not a confirmed value.
# Target: Nuclear receptor ROR-gamma (Mus musculus) (UniProt P51450)
# Assay: qHTS for inhibitors of ROR gamma transcriptional activity; further: nearly all actives have a fitted effect of over 60% in size
# Details: Drosophila S2 Gal4-RORgamma UAS-luciferase reporter, 20 h; activity change, negative = inhibition: at 53.6 µM (top of the series)
# Summary of the method: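 Using a luciferase readout, inhibitors were identified by reduced reporter activity in Drosophila cells coexpressing a copper-inducible Gal4–ROR gamma fusion and UAS-driven Photinus luciferase, incubated 20 hr after 700 uM copper sulfate.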
# On the % scale 0 is the no-effect control and ±100 the full control effect; potency means the concentration at half of the fitted maximal effect.
Structure (SMILES),Potency,"activity change, negative = inhibition"
Cc1c(Cl)cccc1Nc1ccccc1C(=O)O,"inconclusive: 15.8 µM [activator, single point]",
COc1ccc(NC(=O)COc2ccccc2Cc2ccccc2)cc1S(N)(=O)=O,"inconclusive: 17.8 µM [activator, partial curve]",
Cc1ccc(-n2c(-c3ccccc3)n[nH]c2=S)cc1,active: 3.16 µM,
Cc1cc(C)c(S(=O)(=O)N2CCOC2CNC(=O)C(=O)NCCc2c[nH]c3ccccc23)c(C)c1 (centres undefined),"inconclusive: 25.1 µM [activator, single point]",
O=C(NCCSc1ccc(Cl)cc1)c1ccco1,"inconclusive: 35.5 µM [activator, single point]",
CCCCCn1c(CN2CCN(C(=O)OCC)CC2)nc2c1c(=O)[nH]c(=O)n2C,"inconclusive: 0.794 µM [activator, single point]",
O=C(NC1CCCCCCC1)c1ccccc1O,"inconclusive: 25.1 µM [activator, single point]",
CC1CC(=O)Nc2ccccc2N1S(=O)(=O)c1ccc(Br)cc1 (centres undefined),"inconclusive: 22.4 µM [inhibitor, single point]",
O=C(NC12CC3CC(CC(C3)C1)C2)c1ccc([N+](=O)[O-])o1,"inconclusive: 28.2 µM [inhibitor, single point]",
CCC1CCCCN1S(=O)(=O)c1ccc(C(=O)Nc2nnc(-c3cccs3)o2)cc1 (centres undefined),active: 0.316 µM,
CCC(C)NC(=O)Cn1c(COc2ccc(Cl)cc2Cl)nc2ccccc21 (centres undefined),"inconclusive: 1.41 µM [activator, full curve, poor fit]",
CCn1c(O)c(C=Nc2ccccc2)n(-c2ccccc2)c1=S,"inconclusive: 11.2 µM [inhibitor, partial curve, poor fit]",
CSCCC(NC(=O)c1ccc(Cl)cc1Cl)C(=O)NCc1ccccn1 (centres undefined),"inconclusive: 10 µM [inhibitor, single point]",
CCOC(=O)Cn1ccc(NC(=O)COc2ccc(F)cc2F)n1,inactive,
O=C(NNc1nc(=O)c2cccnc2s1)c1ccccc1O,active: 0.0501 µM,
COc1cc(C2NC(=O)NC(c3ccccc3)=C2C(C)=O)c(Br)cc1OCC(N)=O (centres undefined),"inconclusive: 7.08 µM [inhibitor, partial curve]",
O=[N+]([O-])c1ccc(Sc2cc[n+]([O-])c3ccccc23)c([N+](=O)[O-])c1,active: 11.2 µM,
Cc1c(C(C)C)c(=O)n(-c2ccc(S(=O)(=O)NC3CCCCC3)cc2)n1C,"inconclusive: 5.01 µM [activator, single point]",
S=c1nc(-c2cc(Cl)cc(Cl)c2)[nH][nH]1,"inconclusive: 5.62 µM [inhibitor, full curve]",
CCCOc1ccc(/C=C2\SC(=S)N(CC3CCCO3)C2=O)cc1 (centres undefined),"inconclusive: 20 µM [activator, partial curve]",
CCN1CCN(C(=O)C2CCN(C(=O)c3cc4sccc4n3CC)CC2)CC1,inactive,
CCOc1ccccc1N(CC(=O)NCCc1ccccc1)C(=O)CCC(=O)Nc1ccccn1,,inconclusive: 61.2% [activator]

Structure (SMILES),Potency,"activity change, negative = inhibition"
O=C1COc2ccc(C(=O)CSc3nc4ccccc4c(=O)n3-c3ccc(Cl)c(Cl)c3)cc2N1,inactive,
Cc1ccc(NC(=O)Cc2nnc(SCC(=O)c3ccc(Br)cc3)n2C)cc1Cl,inactive,
CCOC(=O)c1nc(N/N=C/c2ccccc2)sc1Br,active: 17.8 µM,
CC(C)c1ccc(C2/C(=C(/O)c3ccccc3)C(=O)C(=O)N2CCCN2CCOCC2)cc1 (centres undefined),"inconclusive: 1.58 µM [inhibitor, full curve]",
CC1CCN(C(=S)NCCc2ccccc2)CC1,"inconclusive: 17.8 µM [inhibitor, single point]",
Cc1nn(-c2ccccc2)c(N)c1N=Nc1ccc(Cl)cc1,"inconclusive: 5.01 µM [activator, partial curve]",
O=C(COc1ccccc1)Nc1ccc(Cl)c(-c2nc3ncccc3o2)c1,"inconclusive: 7.08 µM [activator, partial curve, poor fit]",
COc1ccc(C(=O)C2CCCN(Cc3cc(Cl)ccc3O)C2)c(OC)c1 (centres undefined),"inconclusive: 7.08 µM [activator, full curve]",
CCc1ccc(C(=O)/C=C/c2ccc([N+](=O)[O-])o2)cc1,"inconclusive: 17.8 µM [inhibitor, single point]",
Cc1ccc(NC(=O)c2cn(CCC#N)nc2-c2cccs2)c([N+](=O)[O-])c1,"inconclusive: 10 µM [activator, partial curve]",
CC(C)c1ccc(/C=C2\C(=O)N(CCN3CCOCC3)C(=S)N2C)cc1,"inconclusive: 20 µM [activator, single point]",
Cc1ccnn1CC(=O)N/N=C/c1cn[nH]c1-c1ccccc1,"inconclusive: 22.4 µM [inhibitor, single point]",
Cc1ccc(NC(=O)C2COc3ccccc3O2)cc1C (centres undefined),"inconclusive: 0.355 µM [activator, partial curve, poor fit]",
O=C(COC(=O)c1ccc(NS(=O)(=O)c2cccs2)cc1O)NCc1ccccc1,"inconclusive: 10 µM [activator, partial curve]",
CCCOc1ccc(C(=O)C(CCC(CNCC)C(=O)c2ccc(OCCC)cc2)CNCC)cc1 (centres undefined),active: 15.8 µM,
Cn1c(C(=O)N[C@@H](Cc2ccccc2)C(=O)O)cc2cc(Cl)ccc21,inactive,
COc1ccc(C2CC(c3ccccc3)n3nc(NC(=O)c4cccs4)nc3N2)cc1 (centres undefined),active: 3.55 µM,
COc1cccc(C(=O)Nc2nc(C)cs2)c1,"inconclusive: 35.5 µM [inhibitor, single point]",
S=C(NCc1ccc(Cl)cc1)Nc1ccncc1,"inconclusive: 22.4 µM [inhibitor, single point]",
CC(C)c1ccc(C2NC(=O)NC3=C2CCc2ccccc23)cc1 (centres undefined),inactive,
Cc1ccc(-c2nn(-c3ccccc3)cc2CSC(=N)N)cc1,"inconclusive: 28.2 µM [inhibitor, single point]",
COc1ccccc1C1(CC(=O)N2CCCCC2)CCOC(C(C)C)C1 (centres undefined),inactive,

# Entries above that have a COOH group (2):
Structure (SMILES),Potency,"activity change, negative = inhibition"
Cc1c(Cl)cccc1Nc1ccccc1C(=O)O,"inconclusive: 15.8 µM [activator, single point]",
Cn1c(C(=O)N[C@@H](Cc2ccccc2)C(=O)O)cc2cc(Cl)ccc21,inactive,
